PubChem BioAssay AID248 (DTP/NCI, 2004)
The list does not hold the whole screen: its compounds were picked by chemical class. Not every dose and run of a compound is shown. T/C gives the treated animals as a percentage of the vehicle group. Some doses have a count of surviving animals in place of a T/C: the source holds a T/C of zero for them, seemingly a mark for toxic or unscored doses. Some survivor counts are full or nearly so, which does not show that the dose was tolerated: the source hardly ever lists a survival T/C far under the control, and the zero likely stands for such cases as well. Counts of survivors are from the toxicity check (mostly the fifth day) where no day follows; animals may have died later. Schedule codes are those of the source, read here as Q, the interval in days (D) or hours (H), X, the number of doses. Some schedules carry Z or #; the key to these is not given. Some doses were run more than once; the results are listed from low to high. Brackets with × count equal records among those shown. For survival time, this PubChem deposit counts one and a half times the control or more as active, and values a quarter to a half above the control carry no call in these data; other NCI protocols may use other cut-offs. Some T/C values carry the count of animals alive at the toxicity check (mostly the fifth day); where neither a count nor a note follows, no animal had died by that day.

Test system: L1210 leukemia ip in BDF1 mice, survival T/C
Experiment: NCI In Vivo Anticancer Drug Screen. Data for tumor model L1210 Leukemia (intraperitoneal) in B6D2F1 (BDF1) mice
Details: T/C endpoint: mean survival time, higher T/C = longer survival
[1] = dose: 784.0 mg/kg/injection, schedule: Q07DX Z (ip), vehicle: carboxymethylcellulose (CMC)
[2] = dose: 800.0 mg/kg/injection, schedule: Q01DX001 (ip), vehicle: saline
[3] = dose: 1000.0 mg/kg/injection, schedule: Q01DX001 (ip), vehicle: carboxymethylcellulose (CMC)

NC(=O)c1[nH]cnc1/N=N\N(CCCl)CCCl
T/C (dose: 500.0 mg/kg/injection, schedule: Q04DX Z (ip), vehicle: carboxymethylcellulose (CMC)): 104 and 180 % of control | T/C (dose: 500.0 mg/kg/injection, schedule: Q04DX Z (sc), vehicle: carboxymethylcellulose (CMC)): 295 % of control | T/C (dose: 500.0 mg/kg/injection, schedule: Q08DX002 (ip), vehicle: carboxymethylcellulose (CMC)): 253 and 521 % of control | T/C (dose: 500.0 mg/kg/injection, schedule: Q08DX003 (ip), vehicle: carboxymethylcellulose (CMC)): 465 % of control | T/C (dose: 500.0 mg/kg/injection, schedule: Q08DX Z (ip), vehicle: carboxymethylcellulose (CMC)): 94 and 290 % of control | T/C (dose: 500.0 mg/kg/injection, schedule: Q## X001 (ip), vehicle: carboxymethylcellulose (CMC)): 441 % of control | T/C (dose: 504.0 mg/kg/injection, schedule: Q03DX Z (ip), vehicle: carboxymethylcellulose (CMC)): 89 % of control | T/C (dose: 525.0 mg/kg/injection, schedule: Q01DX001 (ip), vehicle: carboxymethylcellulose (CMC)): 214 and 238 % of control | T/C (dose: 525.0 mg/kg/injection, schedule: Q07DX Z (ip), vehicle: carboxymethylcellulose (CMC)): 221 % of control [5 of 6 alive] | T/C (dose: 560.0 mg/kg/injection, schedule: Q01DX001 (ip), vehicle: steroid suspending solution): 112 % of control | T/C (dose: 567.0 mg/kg/injection, schedule: Q01DX Z (im), vehicle: carboxymethylcellulose (CMC)): 86 % of control | T/C (dose: 567.0 mg/kg/injection, schedule: Q01DX Z (oral), vehicle: carboxymethylcellulose (CMC)): 112 % of control | T/C (dose: 567.0 mg/kg/injection, schedule: Q01DX Z (sc), vehicle: carboxymethylcellulose (CMC)): 112 % of control | survivor count (dose: 600.0 mg/kg/injection, schedule: Q01DX001 (ip), vehicle: clinical formulation): 0 of 6 and 2 of 6 | survivor count (dose: 600.0 mg/kg/injection, schedule: Q01DX001 (ip), vehicle: other): 0 of 8 | T/C (dose: 600.0 mg/kg/injection, schedule: Q01DX001 (ip), vehicle: steroid suspending solution): 116 % of control | T/C (dose: 600.0 mg/kg/injection, schedule: Q01DX001 (oral), vehicle: carboxymethylcellulose (CMC)): 147 % of control | T/C (dose: 600.0 mg/kg/injection, schedule: Q04DX005 (oral), vehicle: carboxymethylcellulose (CMC)): 257 % of control | T/C (dose: 600.0 mg/kg/injection, schedule: Q04DX005 (oral), vehicle: steroid suspending solution): 104 % of control | T/C (dose: 600.0 mg/kg/injection, schedule: Q06HX012 (oral), vehicle: steroid suspending solution): 112 % of control | T/C (dose: 600.0 mg/kg/injection, schedule: Q08DX003 (oral), vehicle: carboxymethylcellulose (CMC)): 226 % of control | T/C (dose: 600.0 mg/kg/injection, schedule: Q08DX003 (oral), vehicle: steroid suspending solution): 133 % of control | T/C (dose: 625.0 mg/kg/injection, schedule: Q01DX001 (ip), vehicle: carboxymethylcellulose (CMC)): 308 % of control | T/C (dose: 691.0 mg/kg/injection, schedule: Q01DX001 (ip), vehicle: saline): 180 % of control | T/C (dose: 691.0 mg/kg/injection, schedule: Q01DX001 (ip), vehicle: steroid suspending solution): 239 % of control | T/C (dose: 691.0 mg/kg/injection, schedule: Q01DX001 (oral), vehicle: steroid suspending solution): 136 % of control [7 of 8 alive] | T/C (dose: 750.0 mg/kg/injection, schedule: Q01DX001 (ip), vehicle: carboxymethylcellulose (CMC)): 275 % of control | T/C (dose: 784.0 mg/kg/injection, schedule: Q01DX001 (ip), vehicle: carboxymethylcellulose (CMC)): 97 [5 of 6 alive], 165, 166, 249 % of control | T/C [1]: 134 % of control | survivor count [1]: 4 of 6 | T/C (dose: 800.0 mg/kg/injection, schedule: Q01DX001 (ip), vehicle: carboxymethylcellulose (CMC)): 269 % of control [7 of 8 alive] | T/C [2]: 207 % of control | survivor count [2]: 6 of 6 | T/C (dose: 800.0 mg/kg/injection, schedule: Q01DX001 (ip), vehicle: steroid suspending solution, evaluated on day 6): 236 % of control | T/C (dose: 800.0 mg/kg/injection, schedule: Q01DX001 (ip), vehicle: steroid suspending solution, evaluated on day 60): 94, 104, 236 % of control | survivor count (dose: 800.0 mg/kg/injection, schedule: Q01DX001 (ip), vehicle: steroid suspending solution): 5 of 8 (2×) and 8 of 8 | survivor count (dose: 800.0 mg/kg/injection, schedule: Q01DX001 (ip), vehicle: water): 2 of 8 | T/C (dose: 800.0 mg/kg/injection, schedule: Q01DX001 (oral), vehicle: carboxymethylcellulose (CMC)): 142 % of control | T/C (dose: 800.0 mg/kg/injection, schedule: Q04DX003 (oral), vehicle: carboxymethylcellulose (CMC)): 131 % of control | T/C (dose: 800.0 mg/kg/injection, schedule: Q04DX Z (oral), vehicle: carboxymethylcellulose (CMC)): 108 % of control | T/C (dose: 800.0 mg/kg/injection, schedule: Q08DX002 (oral), vehicle: carboxymethylcellulose (CMC)): 361 % of control | survivor count (dose: 800.0 mg/kg/injection, schedule: Q08DX003 (ip), vehicle: carboxymethylcellulose (CMC)): 10 of 10 | T/C (dose: 800.0 mg/kg/injection, schedule: Q08DX Z (oral), vehicle: carboxymethylcellulose (CMC)): 221 % of control | T/C (dose: 833.0 mg/kg/injection, schedule: Q01DX001 (ip), vehicle: carboxymethylcellulose (CMC)): 95 [7 of 8 alive] and 290 % of control | survivor count (dose: 833.0 mg/kg/injection, schedule: Q08DX002 (ip), vehicle: carboxymethylcellulose (CMC)): 8 of 8 | T/C (dose: 833.0 mg/kg/injection, schedule: Q08DX003 (ip), vehicle: carboxymethylcellulose (CMC)): 135 % of control | T/C (dose: 833.0 mg/kg/injection, schedule: Q08DX Z (ip), vehicle: carboxymethylcellulose (CMC)): 95 and 110 % of control | T/C [3]: 148 and 226 % of control | survivor count [3]: 1 of 6 | survivor count (dose: 1000.0 mg/kg/injection, schedule: Q07DX Z (ip), vehicle: carboxymethylcellulose (CMC)): 1 of 6 | T/C (dose: 1152.0 mg/kg/injection, schedule: Q01DX001 (ip), vehicle: saline): 254 % of control | T/C (dose: 1152.0 mg/kg/injection, schedule: Q01DX001 (ip), vehicle: steroid suspending solution): 388 % of control | survivor count (dose: 1152.0 mg/kg/injection, schedule: Q01DX001 (oral), vehicle: steroid suspending solution): 5 of 8 | T/C (dose: 1200.0 mg/kg/injection, schedule: Q01DX001 (oral), vehicle: carboxymethylcellulose (CMC)): 168 % of control | T/C (dose: 1200.0 mg/kg/injection, schedule: Q04DX005 (oral), vehicle: steroid suspending solution): 136 % of control | T/C (dose: 1200.0 mg/kg/injection, schedule: Q08DX003 (oral), vehicle: carboxymethylcellulose (CMC)): 189 % of control | T/C (dose: 1200.0 mg/kg/injection, schedule: Q08DX003 (oral), vehicle: steroid suspending solution): 94 % of control | T/C (dose: 1600.0 mg/kg/injection, schedule: Q01DX001 (oral), vehicle: carboxymethylcellulose (CMC)): 238 % of control | T/C (dose: 1600.0 mg/kg/injection, schedule: Q04DX003 (oral), vehicle: carboxymethylcellulose (CMC)): 108 % of control | T/C (dose: 1600.0 mg/kg/injection, schedule: Q04DX Z (oral), vehicle: carboxymethylcellulose (CMC)): 100 % of control | T/C (dose: 1600.0 mg/kg/injection, schedule: Q08DX002 (oral), vehicle: carboxymethylcellulose (CMC)): 258 % of control | T/C (dose: 1600.0 mg/kg/injection, schedule: Q08DX Z (oral), vehicle: carboxymethylcellulose (CMC)): 127 % of control
